PMC5597638
Results are given in words; binding and its absence hold for the method and conditions named. In cells and extracts the contact can be indirect. Binding can be weak; no strength is given. Tags and fused reporters may be left off the sequences shown.

Molecular target: GST-tagged Abl-SH3 domain (mouse)
Test: pull-down; GST-Abl-SH3 as bait; detergent-soluble lysates of IFN-γ-stimulated U937 or HL-60 cells, without or with cross-linking of FcγRI (mIgG2a, then F(ab′)2 anti-mouse IgG, 10 min, 37 °C); bound proteins analysed by immunoblotting; only the target purified

Binder | binding
c-Abl SH3 domain binding protein-2 (3BP2), endogenous in U937 cells (protein, UniProt P78314 1-561) MAAEEMHWPVPMKAIGAQNLLTMPGGVAKAGYLHKKGGTQLQLLKWPLRFVIIHKRCVYYFKSSTSASPQGAFSLSGYNRVMRAAEETTSNNVFPFKIIHISKKHRTWFFSASSEEERKSWMALLRREIGHFHEKKDLPLDTSDSSSDTDSFYGAVERPVDISLSPYPTDNEDYEHDDEDDSYLEPDSPEPGRLEDALMHPPAYPPPPVPTPRKPAFSDMPRAHSFTSKGPGPLLPPPPPKHGLPDVGLAAEDSKRDPLCPRRAEPCPRVPATPRRMSDPPLSTMPTAPGLRKPPCFRESASPSPEPWTPGHGACSTSSAAIMATATSRNCDKLKSFHLSPRGPPTSEPPPVPANKPKFLKIAEEDPPREAAMPGLFVPPVAPRPPALKLPVPEAMARPAVLPRPEKPQLPHLQRSPPDGQSFRSFSFEKPRQPSQADTGGDDSDEDYEKVPLPNSVFVNTTESCEVERLFKATSPRGEPQDGLYCIRNSSTKSGKVLVVWDETSNKVRNYRIFEKDSKFYLEGEVLFVSVGSMVEHYHTHVLPSHQSLLLRHPYGYTGPR | binds
HA-tagged 3BP2 wild-type (protein, UniProt P78314 1-561) MAAEEMHWPVPMKAIGAQNLLTMPGGVAKAGYLHKKGGTQLQLLKWPLRFVIIHKRCVYYFKSSTSASPQGAFSLSGYNRVMRAAEETTSNNVFPFKIIHISKKHRTWFFSASSEEERKSWMALLRREIGHFHEKKDLPLDTSDSSSDTDSFYGAVERPVDISLSPYPTDNEDYEHDDEDDSYLEPDSPEPGRLEDALMHPPAYPPPPVPTPRKPAFSDMPRAHSFTSKGPGPLLPPPPPKHGLPDVGLAAEDSKRDPLCPRRAEPCPRVPATPRRMSDPPLSTMPTAPGLRKPPCFRESASPSPEPWTPGHGACSTSSAAIMATATSRNCDKLKSFHLSPRGPPTSEPPPVPANKPKFLKIAEEDPPREAAMPGLFVPPVAPRPPALKLPVPEAMARPAVLPRPEKPQLPHLQRSPPDGQSFRSFSFEKPRQPSQADTGGDDSDEDYEKVPLPNSVFVNTTESCEVERLFKATSPRGEPQDGLYCIRNSSTKSGKVLVVWDETSNKVRNYRIFEKDSKFYLEGEVLFVSVGSMVEHYHTHVLPSHQSLLLRHPYGYTGPR | binds
HA-3BP2 whose Pro418 was substituted to Arg (protein, UniProt P78314 1-561) MAAEEMHWPVPMKAIGAQNLLTMPGGVAKAGYLHKKGGTQLQLLKWPLRFVIIHKRCVYYFKSSTSASPQGAFSLSGYNRVMRAAEETTSNNVFPFKIIHISKKHRTWFFSASSEEERKSWMALLRREIGHFHEKKDLPLDTSDSSSDTDSFYGAVERPVDISLSPYPTDNEDYEHDDEDDSYLEPDSPEPGRLEDALMHPPAYPPPPVPTPRKPAFSDMPRAHSFTSKGPGPLLPPPPPKHGLPDVGLAAEDSKRDPLCPRRAEPCPRVPATPRRMSDPPLSTMPTAPGLRKPPCFRESASPSPEPWTPGHGACSTSSAAIMATATSRNCDKLKSFHLSPRGPPTSEPPPVPANKPKFLKIAEEDPPREAAMPGLFVPPVAPRPPALKLPVPEAMARPAVLPRPEKPQLPHLQRSPRDGQSFRSFSFEKPRQPSQADTGGDDSDEDYEKVPLPNSVFVNTTESCEVERLFKATSPRGEPQDGLYCIRNSSTKSGKVLVVWDETSNKVRNYRIFEKDSKFYLEGEVLFVSVGSMVEHYHTHVLPSHQSLLLRHPYGYTGPR | binds
HA-3BP2 whose PH domain is deleted (domain or fragment, UniProt P78314 134-561) EKKDLPLDTSDSSSDTDSFYGAVERPVDISLSPYPTDNEDYEHDDEDDSYLEPDSPEPGRLEDALMHPPAYPPPPVPTPRKPAFSDMPRAHSFTSKGPGPLLPPPPPKHGLPDVGLAAEDSKRDPLCPRRAEPCPRVPATPRRMSDPPLSTMPTAPGLRKPPCFRESASPSPEPWTPGHGACSTSSAAIMATATSRNCDKLKSFHLSPRGPPTSEPPPVPANKPKFLKIAEEDPPREAAMPGLFVPPVAPRPPALKLPVPEAMARPAVLPRPEKPQLPHLQRSPPDGQSFRSFSFEKPRQPSQADTGGDDSDEDYEKVPLPNSVFVNTTESCEVERLFKATSPRGEPQDGLYCIRNSSTKSGKVLVVWDETSNKVRNYRIFEKDSKFYLEGEVLFVSVGSMVEHYHTHVLPSHQSLLLRHPYGYTGPR | binds
